Record: PubChem BioAssay AID504793 (Drosophila RNAi Screening Center, 2011)
The screen tested about 23,000 reagents; below is a random part of those with a known target gene and a result. Of all reagents, 62 (0.27%) got an active call. 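Calls come from follow-up tests whose scores are not deposited, so confirmed genes may have low counts here; counts are not normalised per plate.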 The raw values are shown without normalisation. Reagents against one gene are numbered here. A plus sign joins genes that one reagent is predicted to hit.

- Test: 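Genes required for cells to halt at G2/M after double-strand DNA breaks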 (primary screen)
- Cells: Drosophila S2R+ cells
- Reagent: long dsRNA against Drosophila genes, about 0.25 µg dsRNA per well
- Duration: 4 days of dsRNA, then 4 hours of drug before read-out
- Treatment: doxorubicin 0.5 µM for 4 hours to cause double-strand breaks, in cells also given a low, harmless dose of dsRNA against nbs to sensitise the assay
- Measured: 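Per-well count of mitotic cells stained for phospho-histone H3 after doxorubicin exposure, used as mitotic index; counts are raw and not normalised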
- Direction: mitotic cells: higher = more cells in mitosis, weaker G2 arrest
- Call rule: 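Genes are called active only when high mitotic counts were reproduced with independent dsRNAs and mitosis was checked for delay without damage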
- Meaning of the calls: active = confirmed in follow-up tests; inactive = not confirmed

mitotic cells, replicate 1, by gene and reagent
Liprin-beta (GeneID 39524): #1 5 inactive; #2 20 inactive; #3 5 inactive
CG7099 (GeneID 34753): #1 5 inactive; #2 5 inactive
CG14374 (GeneID 50026): #1 3 inactive
PIG-N (GeneID 36049): #1 6 inactive
tra2 (GeneID 36619): #1 8 inactive; #2 3 inactive
Vps51 (GeneID 37156): #1 4 inactive
sno (GeneID 32273): #1 4 inactive
CG31300 (GeneID 326132): #1 7 inactive; #2 7 inactive
CG11865 (GeneID 34917): #1 4 inactive; #2 1 inactive
CG30088 (GeneID 246447): #1 3 inactive; #2 6 inactive
Bap55 (GeneID 36956): #1 12 inactive
CG7548 (GeneID 38843): #1 5 inactive; #2 3 inactive
Np (GeneID 35904): #1 5 inactive; #2 4 inactive
BTBD9 (GeneID 32000): #1 5 inactive; #2 6 inactive
CG30039 (GeneID 246411): #1 9 inactive; #2 7 inactive
CG7963 (GeneID 41001): #1 3 inactive
Slip1 (GeneID 43809): #1 4 inactive
Jhbp5 (GeneID 41949): #1 5 inactive
Gpo1 (GeneID 47611): #1 13 inactive
MsrA (GeneID 39675): #1 5 inactive
CG9550 (GeneID 33913): #1 8 inactive; #2 2 inactive
MRP (GeneID 34686): #1 6 inactive
Tehao (GeneID 34761): #1 5 inactive
CG31823 (GeneID 326163): #1 8 inactive
CG13041 (GeneID 39801): #1 2 inactive; #2 4 inactive
CG12194 (GeneID 33685): #1 3 inactive; #2 10 inactive
CG7386 (GeneID 38719): #1 5 inactive; #2 2 inactive
CG14650 (GeneID 40566): #1 11 inactive; #2 4 inactive
GABA-B-R1 (GeneID 34878): #1 15 inactive
CG3149 (GeneID 31489): #1 6 inactive; #2 7 inactive
nompC (GeneID 33768): #1 5 inactive

4 of these entries, set out differently.
gene	reagent	mitotic cells, replicate 1	Outcome
CG30088 (GeneID 246447)	1	3	inactive
CG30088 (GeneID 246447)	2	6	inactive
Bap55 (GeneID 36956)	1	12	inactive
CG7548 (GeneID 38843)	1	5	inactive

Continued.
mitotic cells, replicate 1, by gene and reagent
CG7945 + yellow-k: #1 4 inactive
CG6126 (GeneID 41967): #1 5 inactive
Rb97D (GeneID 43231): #1 14 inactive; #2 2 inactive
sqd (GeneID 41666): #1 4 inactive; #2 15 inactive; #3 12 inactive
osk (GeneID 41066): #1 3 inactive
CG4842 (GeneID 39817): #1 9 inactive
omd (GeneID 41674): #1 8 inactive; #2 4 inactive
Best4 (GeneID 39660): #1 7 inactive; #2 4 inactive
CG7720 (GeneID 42257): #1 6 inactive; #2 6 inactive
CG33474 (GeneID 2768725): #1 9 inactive
CG5742 (GeneID 37072): #1 5 inactive; #2 6 inactive
CG11786 (GeneID 42998): #1 7 inactive
eIF4E3 (GeneID 38923): #1 6 inactive
CatB (GeneID 34198): #1 5 inactive; #2 9 inactive
Shaw (GeneID 33599): #1 1 inactive; #2 13 inactive; #3 13 inactive
CG13102 (GeneID 34228): #1 3 inactive
Rpp25 (GeneID 35574): #1 13 inactive
